These are yes or no findings as the source states them, for the method shown. For some assays here: Binding seen in cells or lysates may run through a third protein. Some binding calls cover weakened binding; strength is not graded here.
Assays:
[1] = biological target: T1, LFA-1 (heterodimeric CD11a/CD18) (human) (UniProt P20701+P05107); test: Jurkat cells with ESM-1 at 4 C or 37 C, ESM-1 ELISA of lysates
[2] = biological target: T1, LFA-1 (heterodimeric CD11a/CD18) (human); test: BIAcore, ESM-1 at 100, 200 and 300 nM over LFA-1 captured by HI111
[3] = biological target: T1, LFA-1 (heterodimeric CD11a/CD18) (human); test: co-immunoprecipitation and binding assay on Jurkat cells, ESM-1 ELISA
[4] = biological target: T1, LFA-1 (heterodimeric CD11a/CD18) (human); test: flow cytometry on human PBMC and Jurkat cells; binding disappeared in 5 mM EDTA
[5] = biological target: T1, LFA-1 (heterodimeric CD11a/CD18) (human); test: resting Jurkat (and SIB-1) cells with ESM/WT for 1 h at 4 C, ESM-1 ELISA of lysates

The chains behind the UniProt entries cited, without tags or fusion partners. Where a name states a change or a piece, a line headed by the entry shows the natural chain unless it says otherwise.
UniProt P20701: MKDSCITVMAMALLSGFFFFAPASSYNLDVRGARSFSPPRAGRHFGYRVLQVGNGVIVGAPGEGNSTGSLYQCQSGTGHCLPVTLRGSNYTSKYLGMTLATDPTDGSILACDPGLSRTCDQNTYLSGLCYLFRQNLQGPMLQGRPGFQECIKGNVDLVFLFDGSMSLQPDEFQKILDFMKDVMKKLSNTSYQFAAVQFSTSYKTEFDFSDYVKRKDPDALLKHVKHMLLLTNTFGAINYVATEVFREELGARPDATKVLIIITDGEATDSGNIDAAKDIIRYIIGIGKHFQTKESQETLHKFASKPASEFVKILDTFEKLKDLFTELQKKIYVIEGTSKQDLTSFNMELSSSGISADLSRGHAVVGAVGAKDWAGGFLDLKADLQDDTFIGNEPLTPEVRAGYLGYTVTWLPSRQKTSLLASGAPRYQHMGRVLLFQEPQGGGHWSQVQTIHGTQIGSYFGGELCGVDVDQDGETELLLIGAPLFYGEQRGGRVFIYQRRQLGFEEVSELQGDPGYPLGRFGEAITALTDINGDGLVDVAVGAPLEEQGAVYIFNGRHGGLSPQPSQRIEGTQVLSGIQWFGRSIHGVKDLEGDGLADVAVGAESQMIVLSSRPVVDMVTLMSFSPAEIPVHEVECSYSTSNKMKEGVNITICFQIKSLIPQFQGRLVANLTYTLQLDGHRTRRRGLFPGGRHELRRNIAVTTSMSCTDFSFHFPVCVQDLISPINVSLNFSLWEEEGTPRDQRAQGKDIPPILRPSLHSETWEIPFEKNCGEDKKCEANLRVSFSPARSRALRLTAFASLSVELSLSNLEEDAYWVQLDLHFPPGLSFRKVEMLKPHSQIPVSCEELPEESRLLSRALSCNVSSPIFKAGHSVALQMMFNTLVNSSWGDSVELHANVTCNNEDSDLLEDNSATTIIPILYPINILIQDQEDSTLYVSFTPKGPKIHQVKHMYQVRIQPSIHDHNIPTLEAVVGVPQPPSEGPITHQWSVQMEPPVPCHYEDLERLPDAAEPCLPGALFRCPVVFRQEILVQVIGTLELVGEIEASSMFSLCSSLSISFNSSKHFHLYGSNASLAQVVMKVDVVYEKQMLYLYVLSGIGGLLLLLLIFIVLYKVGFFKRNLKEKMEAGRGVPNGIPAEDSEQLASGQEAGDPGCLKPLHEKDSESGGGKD
UniProt P05107: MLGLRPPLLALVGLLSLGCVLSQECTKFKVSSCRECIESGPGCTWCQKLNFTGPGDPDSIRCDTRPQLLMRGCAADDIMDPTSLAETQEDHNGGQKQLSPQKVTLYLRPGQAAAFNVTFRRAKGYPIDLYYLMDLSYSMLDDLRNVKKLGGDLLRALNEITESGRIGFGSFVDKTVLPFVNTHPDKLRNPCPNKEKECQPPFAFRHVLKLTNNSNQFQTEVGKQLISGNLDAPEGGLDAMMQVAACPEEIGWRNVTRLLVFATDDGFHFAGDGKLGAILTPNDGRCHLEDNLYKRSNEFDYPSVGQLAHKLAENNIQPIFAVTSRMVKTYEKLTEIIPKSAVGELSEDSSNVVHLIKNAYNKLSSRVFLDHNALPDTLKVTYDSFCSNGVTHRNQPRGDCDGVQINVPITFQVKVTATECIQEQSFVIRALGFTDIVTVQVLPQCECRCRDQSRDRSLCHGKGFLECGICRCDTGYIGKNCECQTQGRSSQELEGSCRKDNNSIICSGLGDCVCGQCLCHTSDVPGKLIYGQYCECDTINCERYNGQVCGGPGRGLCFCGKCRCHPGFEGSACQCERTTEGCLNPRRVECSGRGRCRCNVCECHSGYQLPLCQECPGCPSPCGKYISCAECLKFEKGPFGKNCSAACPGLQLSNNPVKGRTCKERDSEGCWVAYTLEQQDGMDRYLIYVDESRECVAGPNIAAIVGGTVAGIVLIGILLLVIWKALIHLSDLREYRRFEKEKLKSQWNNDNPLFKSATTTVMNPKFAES

binding [1]: binds
binding [2]: binds
binding [3]: binds
binding [4]: binds
binding [5]: binds
B1: secreted ESM-1 protein (Endothelial Cell Specific Molecule-1), purified wild-type form (ligand)
chain: WSNNYAVDCPQHCDSSECKSSPRCKRTVLDDCGCCRVCAAGRGETCYRTVSGMDGMKCGPCLRCQPSNCEDPFGEEFGICKDCPYGTFGMDCRETCNCQSCICDRGTGKCLKFPFFQYSVTKSSNRFVSLTEHDMASGDGNIVREEVVKENAAGSPVMRKWLNPR
